Test results from paper PMC5059457.
These are yes or no findings as the source states them, for the method shown. In cells and extracts the contact can be indirect. Some entries that bind do so weakly or less than the wild type. Sequences can lack the tags named with a protein. Blank lines part the entries; values can stand above or below the molecule they belong to.

Protein sequences, listed by entry. Tags and fused reporters are not part of them.
UniProt P39940: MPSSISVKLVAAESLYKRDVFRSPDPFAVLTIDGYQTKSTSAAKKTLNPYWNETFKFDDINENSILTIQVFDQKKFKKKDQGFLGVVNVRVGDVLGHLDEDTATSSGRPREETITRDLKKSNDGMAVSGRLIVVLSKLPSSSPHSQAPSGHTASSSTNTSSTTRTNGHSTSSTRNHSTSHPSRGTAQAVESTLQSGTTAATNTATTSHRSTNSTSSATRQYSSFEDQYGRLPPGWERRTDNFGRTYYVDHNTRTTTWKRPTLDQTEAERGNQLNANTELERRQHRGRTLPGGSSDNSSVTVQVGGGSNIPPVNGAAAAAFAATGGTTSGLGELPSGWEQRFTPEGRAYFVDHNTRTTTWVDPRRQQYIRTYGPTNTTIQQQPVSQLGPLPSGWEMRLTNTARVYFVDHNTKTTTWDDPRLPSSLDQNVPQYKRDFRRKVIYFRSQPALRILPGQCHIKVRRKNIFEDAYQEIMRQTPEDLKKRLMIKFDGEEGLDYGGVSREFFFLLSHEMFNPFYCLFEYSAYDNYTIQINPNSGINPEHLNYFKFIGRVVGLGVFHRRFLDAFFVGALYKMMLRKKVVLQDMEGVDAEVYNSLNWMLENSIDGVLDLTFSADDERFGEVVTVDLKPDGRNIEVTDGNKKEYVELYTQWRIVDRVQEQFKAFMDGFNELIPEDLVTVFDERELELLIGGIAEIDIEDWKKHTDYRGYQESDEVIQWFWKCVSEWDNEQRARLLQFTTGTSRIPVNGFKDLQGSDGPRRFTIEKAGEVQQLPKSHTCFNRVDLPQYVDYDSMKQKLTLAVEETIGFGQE

Tests used:
[1] = biological target: T1, Ubp3, endogenously C-terminally TAP-tagged (S. cerevisiae (endogenous, tagged at its locus)) (UniProt Q01477); assay: co-IP; IP of TAP-tagged Ubp2 or Ubp3 from cells crosslinked in vivo with 1% formaldehyde, kept at 25 °C or heat shocked (40 °C, 20 min); modified RIPA lysis, diluted to 0.1% SDS, washes with 300 mM NaCl; western blots for 3xHA-Rsp5 and Pgk1
T1 sequence: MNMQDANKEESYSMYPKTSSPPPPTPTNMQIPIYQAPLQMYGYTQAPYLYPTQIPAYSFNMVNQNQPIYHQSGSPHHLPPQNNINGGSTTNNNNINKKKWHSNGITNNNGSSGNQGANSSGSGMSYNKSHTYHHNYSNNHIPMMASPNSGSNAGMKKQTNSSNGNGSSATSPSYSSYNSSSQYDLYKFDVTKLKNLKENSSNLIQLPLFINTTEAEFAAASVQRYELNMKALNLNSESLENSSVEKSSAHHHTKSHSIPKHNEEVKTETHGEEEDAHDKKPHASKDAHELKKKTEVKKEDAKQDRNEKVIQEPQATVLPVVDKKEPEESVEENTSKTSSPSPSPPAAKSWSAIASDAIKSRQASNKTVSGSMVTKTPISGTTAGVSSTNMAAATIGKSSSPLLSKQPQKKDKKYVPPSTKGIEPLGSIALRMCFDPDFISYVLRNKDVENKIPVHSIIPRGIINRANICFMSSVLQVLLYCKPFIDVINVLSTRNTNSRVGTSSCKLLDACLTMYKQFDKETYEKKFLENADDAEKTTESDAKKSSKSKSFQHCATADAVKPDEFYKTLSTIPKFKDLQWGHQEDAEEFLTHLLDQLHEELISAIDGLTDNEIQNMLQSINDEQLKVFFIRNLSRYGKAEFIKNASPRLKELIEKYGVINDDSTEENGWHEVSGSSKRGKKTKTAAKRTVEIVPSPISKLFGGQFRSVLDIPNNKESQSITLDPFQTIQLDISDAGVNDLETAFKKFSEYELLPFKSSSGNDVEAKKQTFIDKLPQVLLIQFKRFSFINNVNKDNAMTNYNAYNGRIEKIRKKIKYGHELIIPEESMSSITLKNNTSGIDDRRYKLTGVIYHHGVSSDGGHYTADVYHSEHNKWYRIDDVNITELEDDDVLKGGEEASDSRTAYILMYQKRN

[2] = biological target: T2, Ubp2, endogenously C-terminally TAP-tagged (S. cerevisiae (endogenous, tagged at its locus)) (UniProt Q01476); assay: as above
T2 sequence: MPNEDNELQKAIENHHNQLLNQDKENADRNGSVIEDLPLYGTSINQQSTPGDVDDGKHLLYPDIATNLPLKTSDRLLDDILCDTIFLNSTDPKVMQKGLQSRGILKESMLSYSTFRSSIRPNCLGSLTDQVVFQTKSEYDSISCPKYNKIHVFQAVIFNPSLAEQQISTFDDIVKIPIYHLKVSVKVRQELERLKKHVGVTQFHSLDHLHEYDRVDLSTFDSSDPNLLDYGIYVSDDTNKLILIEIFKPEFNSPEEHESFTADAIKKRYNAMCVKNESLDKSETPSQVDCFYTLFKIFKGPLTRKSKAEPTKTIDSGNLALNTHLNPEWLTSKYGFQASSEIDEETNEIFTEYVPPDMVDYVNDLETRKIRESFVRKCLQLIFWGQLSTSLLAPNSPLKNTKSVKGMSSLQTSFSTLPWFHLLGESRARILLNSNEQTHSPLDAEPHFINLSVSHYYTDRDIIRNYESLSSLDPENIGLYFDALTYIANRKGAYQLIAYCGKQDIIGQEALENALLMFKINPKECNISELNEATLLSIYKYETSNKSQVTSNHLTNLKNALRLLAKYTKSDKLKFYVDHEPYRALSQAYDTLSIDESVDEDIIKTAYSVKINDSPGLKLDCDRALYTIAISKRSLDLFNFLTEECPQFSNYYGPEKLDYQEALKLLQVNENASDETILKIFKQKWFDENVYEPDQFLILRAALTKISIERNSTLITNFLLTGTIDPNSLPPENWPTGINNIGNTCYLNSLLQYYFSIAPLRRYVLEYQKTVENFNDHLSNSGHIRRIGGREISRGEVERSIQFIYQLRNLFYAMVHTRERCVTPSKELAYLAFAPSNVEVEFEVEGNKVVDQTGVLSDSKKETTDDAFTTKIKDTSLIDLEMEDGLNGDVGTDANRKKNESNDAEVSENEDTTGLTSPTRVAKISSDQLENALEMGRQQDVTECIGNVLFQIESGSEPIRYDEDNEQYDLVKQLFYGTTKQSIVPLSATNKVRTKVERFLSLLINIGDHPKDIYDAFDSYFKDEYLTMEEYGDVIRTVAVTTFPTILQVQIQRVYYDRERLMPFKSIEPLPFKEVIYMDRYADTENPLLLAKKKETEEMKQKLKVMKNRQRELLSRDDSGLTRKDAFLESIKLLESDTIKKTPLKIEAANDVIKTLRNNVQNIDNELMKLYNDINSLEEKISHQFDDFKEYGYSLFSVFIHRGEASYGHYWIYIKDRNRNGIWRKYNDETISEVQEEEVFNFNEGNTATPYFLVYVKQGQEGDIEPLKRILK

[3] = biological target: 3xHA-tagged Rsp5 (S. cerevisiae) (UniProt P39940); assay: co-IP; reciprocal experiments to a1 (Supplementary Fig. 2b,c); crosslinked cells, with and without HS

binding [1]: binds
Molecule: 3xHA-tagged Rsp5 (from UniProt P39940 1-809) (enzyme)

binding [2]: no binding
binding [1]: no binding
B1: Pgk1 (3-phosphoglycerate kinase) (protein, UniProt P00560 1-416)
chain: MSLSSKLSVQDLDLKDKRVFIRVDFNVPLDGKKITSNQRIVAALPTIKYVLEHHPRYVVLASHLGRPNGERNEKYSLAPVAKELQSLLGKDVTFLNDCVGPEVEAAVKASAPGSVILLENLRYHIEEEGSRKVDGQKVKASKEDVQKFRHELSSLADVYINDAFGTAHRAHSSMVGFDLPQRAAGFLLEKELKYFGKALENPTRPFLAILGGAKVADKIQLIDNLLDKVDSIIIGGGMAFTFKKVLENTEIGDSIFDKAGAEIVPKLMEKAKAKGVEVVLPVDFIIADAFSADANTKTVTDKEGIPAGWQGLDNGPESRKLFAATVAKAKTIVWNGPPGVFEFEKFAAGTKALLDEVVKSSAAGNTVIIGGGDTATVAKKYGVTDKISHVSTGGGASLELLEGKELPGVAFLSEKK

binding [3]: binds
B2: Ubp3, endogenously C-terminally TAP-tagged (enzyme, UniProt Q01477 1-912)
chain: T1 sequence
